The other results are listed elsewhere or left out. Most entries show no effect beyond the scatter of the controls.
Legend:
[1] = system: ppGalNAc-T3 sensor; experiment: T3 sensor activation Q score (MG/GFP ratio z-score vs DMSO controls) (SD units); higher = more sensor activation (inhibition of ppGalNAc-T3 glycosylation); settings: HEK293 sensor cells; 10 µM; 6 h
Protocol: (§1)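 Cells were treated with compound at 10 uM for 6 h, then MG/GFP ratio was read by flow cytometry (10,000 cells per well, duplicate wells). Q = (R - R_neg)/SD_neg relative to DMSO vehicle controls; the signal rises when the glycosyltransferase is inhibited.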

[2] = system: ppGalNAc-T2 sensor; experiment: T2 sensor activation Q score (MG/GFP ratio z-score vs DMSO controls) (SD units); higher = more sensor activation (inhibition of ppGalNAc-T2 glycosylation); settings: HEK293 sensor cells; 10 µM; 6 h
Protocol: as §1

Structure (SMILES): Cc1cccc(C(=O)Nc2ccc(Cl)c(Cl)c2)c1
- T3 sensor activation Q score [1]: -0.48
- T2 sensor activation Q score [2]: -0.11

Structure (SMILES): Cc1ccc(NC(=O)CCC(=O)O)cc1I
- T3 sensor activation Q score [1]: -0.505
- T2 sensor activation Q score [2]: 1.15

Structure (SMILES): CN(C)C=NS(=O)(=O)c1ccccc1
- T3 sensor activation Q score [1]: 0.615
- T2 sensor activation Q score [2]: 0.445

Structure (SMILES): CC(C)(C)c1ccc(C(=O)Nc2ccccc2Cl)cc1
- T3 sensor activation Q score [1]: 0.415
- T2 sensor activation Q score [2]: 0.14

Structure (SMILES): O=c1c2ccccc2nc2n1CCS2
- T3 sensor activation Q score [1]: 0.795
- T2 sensor activation Q score [2]: 0.425

Structure (SMILES): O=c1[nH]c(NCCCO)nc2c1C1(CCCC1)Cc1ccccc1-2
- T3 sensor activation Q score [1]: -0.565
- T2 sensor activation Q score [2]: 0.035

Source: the supplement of paper PMC5407854, “Inhibitor of ppGalNAc-T3-mediated O-glycosylation blocks cancer cell invasiveness and lowers FGF23 levels” (eLife, 2017)
